From doi:10.1101/2022.02.27.482165 come the findings set out here.

Chains of the proteins cited; added tags and fusions are not shown.
UniProt O14497: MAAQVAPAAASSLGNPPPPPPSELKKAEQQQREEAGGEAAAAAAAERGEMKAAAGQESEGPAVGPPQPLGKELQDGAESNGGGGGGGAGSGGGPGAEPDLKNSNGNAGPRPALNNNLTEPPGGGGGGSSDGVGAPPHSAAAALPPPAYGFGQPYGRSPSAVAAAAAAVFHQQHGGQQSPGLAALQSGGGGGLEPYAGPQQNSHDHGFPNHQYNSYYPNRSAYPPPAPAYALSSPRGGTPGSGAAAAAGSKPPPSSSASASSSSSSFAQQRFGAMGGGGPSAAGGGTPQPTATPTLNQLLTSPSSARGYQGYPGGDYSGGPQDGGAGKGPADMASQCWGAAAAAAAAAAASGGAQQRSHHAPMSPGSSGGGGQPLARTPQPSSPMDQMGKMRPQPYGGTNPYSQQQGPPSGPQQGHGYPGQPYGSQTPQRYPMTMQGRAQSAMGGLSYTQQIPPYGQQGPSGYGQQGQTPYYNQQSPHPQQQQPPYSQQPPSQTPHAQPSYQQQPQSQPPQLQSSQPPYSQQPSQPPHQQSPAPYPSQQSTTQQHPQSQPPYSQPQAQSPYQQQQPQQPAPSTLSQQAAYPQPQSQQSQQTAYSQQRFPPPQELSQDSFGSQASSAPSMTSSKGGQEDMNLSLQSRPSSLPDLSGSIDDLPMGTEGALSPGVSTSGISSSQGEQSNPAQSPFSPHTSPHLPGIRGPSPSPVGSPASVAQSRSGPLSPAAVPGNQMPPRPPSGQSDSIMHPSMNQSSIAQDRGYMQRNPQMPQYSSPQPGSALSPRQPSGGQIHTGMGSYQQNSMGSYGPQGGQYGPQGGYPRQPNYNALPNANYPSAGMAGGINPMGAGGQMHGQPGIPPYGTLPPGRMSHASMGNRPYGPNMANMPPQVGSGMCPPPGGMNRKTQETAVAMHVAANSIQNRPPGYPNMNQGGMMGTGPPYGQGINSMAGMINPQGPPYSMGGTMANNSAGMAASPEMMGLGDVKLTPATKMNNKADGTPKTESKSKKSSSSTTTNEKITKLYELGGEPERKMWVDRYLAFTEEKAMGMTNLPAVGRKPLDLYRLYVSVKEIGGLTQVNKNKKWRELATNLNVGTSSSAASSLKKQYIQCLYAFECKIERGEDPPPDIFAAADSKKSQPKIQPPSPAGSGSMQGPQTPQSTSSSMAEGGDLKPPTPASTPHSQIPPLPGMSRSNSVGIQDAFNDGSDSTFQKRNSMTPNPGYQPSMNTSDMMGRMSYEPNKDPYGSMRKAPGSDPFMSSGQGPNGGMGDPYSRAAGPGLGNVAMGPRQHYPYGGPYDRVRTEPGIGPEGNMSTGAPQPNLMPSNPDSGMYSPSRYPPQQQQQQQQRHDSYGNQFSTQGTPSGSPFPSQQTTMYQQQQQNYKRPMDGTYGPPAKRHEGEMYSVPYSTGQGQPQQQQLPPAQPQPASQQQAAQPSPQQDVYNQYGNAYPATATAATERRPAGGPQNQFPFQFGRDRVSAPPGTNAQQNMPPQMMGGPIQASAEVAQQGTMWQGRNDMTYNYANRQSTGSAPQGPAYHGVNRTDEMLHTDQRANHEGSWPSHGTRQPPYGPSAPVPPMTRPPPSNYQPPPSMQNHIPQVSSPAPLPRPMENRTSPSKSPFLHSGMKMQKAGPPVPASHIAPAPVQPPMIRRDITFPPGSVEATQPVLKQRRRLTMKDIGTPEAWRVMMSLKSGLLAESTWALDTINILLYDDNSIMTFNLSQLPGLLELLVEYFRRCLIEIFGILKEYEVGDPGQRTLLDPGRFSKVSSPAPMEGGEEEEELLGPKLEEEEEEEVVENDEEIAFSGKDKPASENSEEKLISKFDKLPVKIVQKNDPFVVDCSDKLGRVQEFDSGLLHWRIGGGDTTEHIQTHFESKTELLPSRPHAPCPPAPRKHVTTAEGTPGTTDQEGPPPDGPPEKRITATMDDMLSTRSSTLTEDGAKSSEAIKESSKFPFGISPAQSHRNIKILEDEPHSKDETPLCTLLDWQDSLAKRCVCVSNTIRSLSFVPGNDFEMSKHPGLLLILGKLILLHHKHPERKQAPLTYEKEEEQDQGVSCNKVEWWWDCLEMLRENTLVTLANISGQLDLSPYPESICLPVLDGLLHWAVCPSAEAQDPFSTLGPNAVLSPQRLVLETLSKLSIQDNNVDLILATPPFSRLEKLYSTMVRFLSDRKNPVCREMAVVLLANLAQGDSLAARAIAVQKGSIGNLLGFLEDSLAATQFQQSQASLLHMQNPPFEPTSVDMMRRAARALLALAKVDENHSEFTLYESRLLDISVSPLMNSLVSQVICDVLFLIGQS
UniProt Q14839: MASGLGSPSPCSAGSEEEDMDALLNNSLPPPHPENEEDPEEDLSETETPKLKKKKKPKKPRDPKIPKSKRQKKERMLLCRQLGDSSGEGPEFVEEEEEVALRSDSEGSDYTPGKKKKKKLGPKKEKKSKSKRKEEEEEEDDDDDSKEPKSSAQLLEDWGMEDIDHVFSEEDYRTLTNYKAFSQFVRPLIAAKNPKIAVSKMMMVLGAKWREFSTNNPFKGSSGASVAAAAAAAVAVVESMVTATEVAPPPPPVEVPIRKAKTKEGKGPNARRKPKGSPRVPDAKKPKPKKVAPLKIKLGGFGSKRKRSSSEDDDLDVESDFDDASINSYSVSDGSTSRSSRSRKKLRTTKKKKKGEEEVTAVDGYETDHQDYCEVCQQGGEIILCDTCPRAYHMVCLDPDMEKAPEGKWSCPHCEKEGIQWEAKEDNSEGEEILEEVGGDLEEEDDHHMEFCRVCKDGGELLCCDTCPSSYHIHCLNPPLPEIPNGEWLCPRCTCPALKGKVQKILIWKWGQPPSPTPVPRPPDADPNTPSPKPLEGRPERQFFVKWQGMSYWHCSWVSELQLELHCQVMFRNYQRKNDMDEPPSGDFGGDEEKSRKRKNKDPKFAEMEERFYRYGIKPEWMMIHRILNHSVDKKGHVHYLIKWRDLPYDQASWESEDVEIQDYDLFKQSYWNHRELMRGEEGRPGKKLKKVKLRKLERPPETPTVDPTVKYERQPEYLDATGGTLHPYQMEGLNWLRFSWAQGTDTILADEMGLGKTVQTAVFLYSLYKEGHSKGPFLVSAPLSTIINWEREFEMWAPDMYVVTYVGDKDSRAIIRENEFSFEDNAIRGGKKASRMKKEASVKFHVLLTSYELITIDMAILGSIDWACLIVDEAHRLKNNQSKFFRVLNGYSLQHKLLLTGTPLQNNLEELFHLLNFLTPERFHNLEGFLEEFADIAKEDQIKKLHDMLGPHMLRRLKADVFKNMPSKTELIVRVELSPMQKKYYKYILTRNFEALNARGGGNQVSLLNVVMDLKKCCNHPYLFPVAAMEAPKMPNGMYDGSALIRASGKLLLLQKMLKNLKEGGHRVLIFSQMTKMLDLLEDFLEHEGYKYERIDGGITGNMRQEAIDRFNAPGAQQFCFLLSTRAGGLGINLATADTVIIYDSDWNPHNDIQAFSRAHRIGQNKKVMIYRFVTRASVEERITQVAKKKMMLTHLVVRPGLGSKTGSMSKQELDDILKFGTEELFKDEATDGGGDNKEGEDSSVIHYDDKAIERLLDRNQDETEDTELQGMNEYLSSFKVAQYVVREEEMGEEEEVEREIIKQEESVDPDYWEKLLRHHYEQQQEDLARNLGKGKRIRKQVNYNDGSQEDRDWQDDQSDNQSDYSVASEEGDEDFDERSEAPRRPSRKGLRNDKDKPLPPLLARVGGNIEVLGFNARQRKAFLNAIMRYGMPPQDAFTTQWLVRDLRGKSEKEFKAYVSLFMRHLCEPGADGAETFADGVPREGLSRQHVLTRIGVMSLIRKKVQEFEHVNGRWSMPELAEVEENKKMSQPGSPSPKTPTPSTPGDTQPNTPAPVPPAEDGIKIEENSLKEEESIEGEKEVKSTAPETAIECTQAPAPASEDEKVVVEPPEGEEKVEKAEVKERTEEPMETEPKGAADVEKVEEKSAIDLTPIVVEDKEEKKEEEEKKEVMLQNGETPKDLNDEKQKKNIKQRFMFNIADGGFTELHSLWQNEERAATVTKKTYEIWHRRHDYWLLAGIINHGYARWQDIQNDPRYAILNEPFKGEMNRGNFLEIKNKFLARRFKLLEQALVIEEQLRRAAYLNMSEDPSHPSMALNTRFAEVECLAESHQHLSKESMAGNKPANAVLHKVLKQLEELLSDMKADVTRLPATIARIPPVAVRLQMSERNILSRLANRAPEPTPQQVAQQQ

Results are given in words; binding and its absence hold for the method and conditions named. Binding seen in cells or lysates may run through a third protein. Some results given as binding are weak or reduced against the parent protein; the word gives no strength.

This experiment concerns the target ARID1A (human (endogenous in 12Z)) (UniProt O14497). The experiment in a line: co-IP.

With CHD4 (from UniProt Q14839 1-1912), the binding result is reported as “binds”.
